## Percent effect of library compounds

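Whole-parasite assay of Trypanosoma brucei over 72 hours; the read-out is not stated. Concentration: 30 µM. Direction is inferred from retests: higher values go with stronger inhibition. Values scatter widely below zero; nearly all retest evidence comes from the higher of the two concentrations used. About 64,000 compounds were tested under these conditions; 1.5% (about 940) showed 50% or more at least once.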

Values are the deposited “Percent Effect”, in %.
The record does not define 0% and 100%; most values in the screen are far below 50% and negative numbers occur (in some assays of this library far below -100).
The compounds are a random part of those screened.

Result for COCC1CN(S(=O)(=O)Cc2ccc(C)cc2)Cc2c1cnn2C.O=C(O)C(F)(F)F (centres undefined) was -62.28%.
Result for O=c1cc(Cn2ccnc2)nc2n1CCCN(CC1CCOCC1)C2 was -0.08906%.
Result for Cn1c(CN2CCOCC2)cc(=O)c(O)c1CN1CCCCC1 was -15.81%.
Result for c1csc(N2CCCN(c3ncnc4sccc34)CC2)n1 was -3.811%.
Result for CCn1nc(CNC(=O)C2CC(=O)N(C3CCCC3)C2)c2ccccc21 (centres undefined) was -15.01%.
Result for Cc1ccc(S(=O)(=O)NCCCN2CCC(O)CC2)cc1Cl was -21.21%.
Result for O=C(CSc1ccccc1)N1CCC(N2CCCCC2=O)CC1 was -26.24%.
Result for COc1cc(CNC(C)c2ccc(F)c(F)c2)cc2c1OCCO2.O=C(O)C(=O)O (centres undefined) was 100.7%.
Result for COc1ccc(C(=O)N2C[C@@H](CN3CCCC3)[C@@H](CO)C2)c(C)c1 was -10.05%.
Result for CC(C)C1CN(S(=O)(=O)C2CC2)CCCN1Cc1ccc(F)cc1 (centres undefined) was 5.281%.
Result for Cc1ccccc1OC1CCN(C(=O)CNC(=O)N(C)C)CC1 was -4.228%.
Result for N#Cc1cccc(CNC(=O)Nc2cccnc2N2CCCC2)c1 was -32.59%.
Result for Cc1cc(OCC(=O)NC(C)c2ccc(N3CCOCC3)cc2)no1 (centres undefined) was -17.59%.
Result for COCc1nc(C(=O)N2CCCC2c2noc(C)n2)cs1 (centres undefined) was 5.168%.
Result for C=Cc1ccc(CN2C(=O)C3(CCNCC3)Nc3ccccc32)cc1 was -41.13%.
Result for [H][C@@]12CCN(C)[C@]1([H])CN(C(=O)COCc1nc3cc(F)ccc3[nH]1)C2 was -40.24%.
Result for O=C1CCc2ccccc2N1CCCn1cnnn1 was 15.92%.
Result for O=C(NCCO)Nc1c(F)cccc1Oc1ccccc1 was -14.07%.
Result for CCC1(CO)CCCN(C(=O)c2cc(COc3ccccc3F)[nH]n2)C1 (centres undefined) was -33.79%.
Result for CCc1nc2ccccc2c(=O)n1CC1(O)CCN(C(=O)COC)CC1.Cl was -3.571%.
Result for O=C1CCC(c2ccc(Cl)cc2)=NN1CN1CCCCCC1 was -5.538%.
Result for CCc1nccn1C1CCCN(C(=O)c2ccc(NC3CC3)nc2)C1 (centres undefined) was 9.941%.
Result for CCn1ncc(C(=O)NCCc2nc(-c3ccncc3)n[nH]2)c1C was -8.579%.
Result for CCNC(=O)COc1ccccc1N1CCCC(C)C1 (centres undefined) was -11.98%.
Result for COc1coc(C(=O)Nc2ccncc2)cc1=O was -13.71%.
Result for O=C(CSc1ccc2c(c1)OCCO2)NS(=O)(=O)c1cccs1 was -22.47%.
Result for CC(=O)NC1CCN(c2cnc(C3CCNCC3)cn2)CC1.Cl was -3.161%.
Result for Cc1cc(N2CCC(N3CCOCC3)C2)n2nc(C)c(C)c2n1 (centres undefined) was -34.31%.
Result for Cc1nc2ccc(S(=O)(=O)Nc3c(C)nn(CC(=O)O)c3C)cc2s1 was -20.29%.
Result for CCN(C)C(=O)c1ccc(N(C)Cc2cc(-c3cccnc3)no2)nc1 was -22.42%.
Result for Cc1cc(C(=O)NC2CCN(c3nnc(C)c(C)c3C#N)CC2)no1 was -40.25%.
Result for Cc1nnc(SCCNc2cc(C3CC3)ncn2)s1 was -34.97%.
Result for CC(Cn1cccn1)C(=O)N1CCCN(Cc2cscn2)CC1 (centres undefined) was -15.52%.
Result for Cc1noc(CN2CCN(CCS(C)(=O)=O)CC2)n1 was 9.812%.
Result for [H][C@]12CCN(C(=O)Cc3ccc(OC)cc3)CC[C@@]1([H])S(=O)(=O)N(C)C2 was -2.548%.
Result for CCOc1cc2c(cc1CN1CCC3(CCCNC3=O)C1)CCC2 (centres undefined) was 98.93%.
Result for Cc1nc2ccnn2c(C)c1CCC(=O)N1CCSCC1 was -10.75%.
Result for Cc1ncc2c(n1)CCN(C(C(N)=O)c1ccccc1)C2 (centres undefined) was -14.88%.
Result for Cn1nc2c(cc1=O)CN(Cc1nc3ccccc3c(=O)[nH]1)CC2 was -11.84%.
Result for Cc1cccc(CN2C(=O)CCC23CCN(c2ccccn2)CC3)n1.O=C(O)C(F)(F)F.O=C(O)C(F)(F)F was -36.28%.
Result for OC1CN(c2nc3c(C(F)(F)F)cccc3s2)C1 was -44.32%.
Result for Cc1cccc(N2CCC(NC(C)c3cccs3)CC2)n1 (centres undefined) was -1.968%.
Result for CCN1Cc2nc(OC)c(CNC(=O)CCC3CCCC3)cc2C1=O was -13.67%.
Result for COCCC(=O)N1CCCC2(CCN(c3ccccc3)C2=O)C1 (centres undefined) was -11.18%.
Result for COC(=O)CCc1c(C)nn(-c2nc(C)cc(=O)[nH]2)c1C was 34.11%.
Result for OCc1c(Cl)ncn1-c1ccccc1 was 3.246%.
Result for Cc1ccc(Sc2ccc(N3CCC(C(=O)O)CC3)nn2)cc1 was -27.87%.
Result for O=C(c1sccc1C1CC1)N1CCN(c2ncccn2)CC1 was 3.448%.
Result for O=C(Nc1ccc2c(c1)OCO2)c1ccc(N2CCCC2)nn1 was -43.91%.
Result for CCCc1cc(=O)n(CC(=O)NC(C)C)c(-n2nc(C)cc2C)n1 was -16.6%.
Result for COc1cccc(-c2n[nH]c3c2CN(C(=O)c2oc(C)cc2C)CC3)c1 was 0.1543%.
Result for Cn1cccc1C(=O)N1CCC2(CC1)CN(c1ccsc1)C(=O)CO2 was -133.6%.
Result for CN(C)C(=O)CNC(CC(F)(F)F)c1ccc(F)cc1 (centres undefined) was -20.63%.
Result for O=S1(=O)COCCN1CCOc1ccccc1 was 4.78%.
Result for COc1ccc(Cl)cc1CN1CC(n2cccn2)C1 was -52.45%.
Result for Cc1nc(CNC2CCc3ncnn3C2)oc1C (centres undefined) was 7.244%.
Result for Cc1noc(CN2Cc3ccccc3CC2c2nnc(C)o2)n1 (centres undefined) was -2.651%.
Result for Cc1cc(C)n(CC2CN(Cc3cscn3)CCO2)n1 (centres undefined) was 15.45%.
Result for Cc1nc(C)n(CC2CCCCN2Cc2nnc(-c3ccco3)o2)n1 (centres undefined) was -8.324%.
Result for Cc1ccccc1C1(C(=O)NCCN(C(C)C)C(C)C)CCOCC1 was -8.509%.

Data taken from ChEMBL document CHEMBL3988442, “University of Dundee, Small-Polar-MMV Screening Library” (2021).